# Results reported in ChEMBL document CHEMBL1641566, “N-(Pyridin-3-yl)benzamides as selective inhibitors of human aldosterone synthase (CYP11B2)” (Bioorg Med Chem Lett, 2011).
# Columns and labels:
# [1] = molecular target: T1, CYP11B1 (steroid-11beta-hydroxylase) (Homo sapiens, UniProt P15538); assay: Inhibition of human steroid-11beta-hydroxylase expressed in chinese hamster V79 cells at 500 nM using 11-deoxycorticosterone as substrate
# T1 sequence (P15538 whole entry): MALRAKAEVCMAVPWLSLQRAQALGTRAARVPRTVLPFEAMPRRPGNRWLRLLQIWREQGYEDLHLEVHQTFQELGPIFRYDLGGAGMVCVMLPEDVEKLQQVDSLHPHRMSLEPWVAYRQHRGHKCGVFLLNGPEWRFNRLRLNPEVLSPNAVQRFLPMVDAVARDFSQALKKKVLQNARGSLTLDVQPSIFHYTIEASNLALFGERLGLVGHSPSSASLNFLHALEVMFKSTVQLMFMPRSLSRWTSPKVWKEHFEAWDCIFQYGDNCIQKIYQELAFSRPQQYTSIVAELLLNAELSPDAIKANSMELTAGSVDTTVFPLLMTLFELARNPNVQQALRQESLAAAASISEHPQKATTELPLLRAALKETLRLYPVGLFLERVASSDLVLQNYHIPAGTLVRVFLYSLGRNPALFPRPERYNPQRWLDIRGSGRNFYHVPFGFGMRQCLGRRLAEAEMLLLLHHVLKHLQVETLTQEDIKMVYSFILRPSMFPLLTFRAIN
# [2] = molecular target: T2, Cytochrome P450 11B2, mitochondrial (Homo sapiens, UniProt P19099); assay: Inhibition of human aldosterone synthase expressed in chinese hamster V79 cells at 500 nM using 11-deoxycorticosterone as substrate; conditions: read-out: INH
# T2 sequence (P19099 whole entry): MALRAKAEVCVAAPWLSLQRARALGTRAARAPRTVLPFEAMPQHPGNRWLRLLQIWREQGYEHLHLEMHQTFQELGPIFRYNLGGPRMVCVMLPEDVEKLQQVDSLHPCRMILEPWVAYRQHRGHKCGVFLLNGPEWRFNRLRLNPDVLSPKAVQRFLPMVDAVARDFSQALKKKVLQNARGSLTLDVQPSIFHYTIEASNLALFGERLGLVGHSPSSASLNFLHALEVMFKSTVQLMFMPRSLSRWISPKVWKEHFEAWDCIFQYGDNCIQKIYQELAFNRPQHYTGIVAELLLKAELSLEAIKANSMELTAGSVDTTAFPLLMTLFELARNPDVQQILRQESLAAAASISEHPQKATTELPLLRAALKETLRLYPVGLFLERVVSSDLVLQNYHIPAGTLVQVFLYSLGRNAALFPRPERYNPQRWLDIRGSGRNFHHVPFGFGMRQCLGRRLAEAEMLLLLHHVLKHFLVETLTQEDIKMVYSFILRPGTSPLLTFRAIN
smiles,measurement,setting,value
O=C(Nc1cccnc1)c1cccc(F)c1,inhibition at 0.5 µM,[1],1%
same,inhibition at 0.5 µM,[2],47%
